Results are given in words; binding and its absence hold for the method and conditions named. Binding calls can cover weak binding; strength is not graded here. Where a sequence is shown, tags or fusion partners need not be part of it.
Assays:
[1] = molecular target: T1, NRP1-b1b2 (273-586) protein (UniProt O14786 273-586); assay: competitive binding ELISA on NRP1-b1b2
T1 construct: range 273-586; Prepared according to Appleton et al. 2007; Biotinylated (Sulfo-NHS-LC-biotin) for the yeast display FACS; unlabelled in ELISA and SPR; also called neuropilin-1 b1b2 protein; biotinylated NRP1-b1b2

The chains behind the UniProt entries cited, without tags or fusion partners. Where a name states a change or a piece, a line headed by the entry shows the natural chain unless it says otherwise.
UniProt O14786: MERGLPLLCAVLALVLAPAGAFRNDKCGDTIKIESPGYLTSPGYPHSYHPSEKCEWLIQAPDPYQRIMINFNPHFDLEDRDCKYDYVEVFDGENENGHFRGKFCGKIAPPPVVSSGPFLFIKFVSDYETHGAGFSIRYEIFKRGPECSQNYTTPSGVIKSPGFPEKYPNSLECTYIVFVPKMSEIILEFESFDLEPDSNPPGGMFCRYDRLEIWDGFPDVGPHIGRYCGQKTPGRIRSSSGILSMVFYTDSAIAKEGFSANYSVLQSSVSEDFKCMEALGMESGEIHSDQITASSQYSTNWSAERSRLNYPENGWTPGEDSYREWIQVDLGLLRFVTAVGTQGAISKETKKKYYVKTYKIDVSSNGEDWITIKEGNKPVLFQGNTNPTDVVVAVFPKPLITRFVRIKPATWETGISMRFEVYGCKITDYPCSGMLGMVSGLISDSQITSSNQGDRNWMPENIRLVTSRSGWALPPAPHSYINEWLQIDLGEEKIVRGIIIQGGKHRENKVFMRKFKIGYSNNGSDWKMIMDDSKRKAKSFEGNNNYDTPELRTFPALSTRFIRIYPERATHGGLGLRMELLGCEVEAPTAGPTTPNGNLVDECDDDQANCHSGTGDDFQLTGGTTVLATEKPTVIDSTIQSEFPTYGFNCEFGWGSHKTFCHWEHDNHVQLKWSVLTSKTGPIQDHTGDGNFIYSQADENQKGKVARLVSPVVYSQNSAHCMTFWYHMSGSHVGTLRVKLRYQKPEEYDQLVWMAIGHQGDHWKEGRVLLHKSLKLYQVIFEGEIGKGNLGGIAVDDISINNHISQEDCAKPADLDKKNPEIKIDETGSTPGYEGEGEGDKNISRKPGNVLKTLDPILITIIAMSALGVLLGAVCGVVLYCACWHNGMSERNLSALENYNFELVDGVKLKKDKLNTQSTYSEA

[2] = molecular target: T1, NRP1-b1b2 (273-586) protein; assay: ELISA, biotinylated analyte on immobilised NRP1-b1b2, absorbance at 405 nm [B]
[3] = molecular target: T1, NRP1-b1b2 (273-586) protein; assay: competitive ELISA on NRP1-b1b2; TPP11 peptide varied, blocked ligand VEGF165 [5 nM], relative binding (%) [B]
[4] = molecular target: T1, NRP1-b1b2 (273-586) protein; assay: competitive ELISA on NRP1-b1b2; TPP11 peptide varied, blocked ligand RPARPAR [10 µM], relative binding (%) [B]

Measured: binding

HTPGNSKPTRTPRR [synthetic peptide TPP11 not fused to Fc]
binds: all assays above
